{"source": "patent US5591763A", "about": "“treatments for diseases characterized by neovascularization” (President and Fellows of Harvard College, priority 1995, dated 1997)", "test_system": "rat vascular smooth muscle cells", "test": "cells", "format": "cell-based", "conditions": "read-out: ID50, inhibition of DNA synthesis", "protocol": "DNA synthesis assessed by the uptake of [3H]thymidine: Cells are grown in either 48 or 96 wells plates (Costar, Cambridge, Mass.) at 104 and 0.8 10^3 cells per well, respectively, and grown in Dubelcco's modified Eagle's medium (DME, Gibco, Grand Island, N.Y.) supplemented with 10% heat-inactivated calf serum; they are kept at 37° C. in 5% CO2. When they reach confluence, usually between 3 and 4 days, the medium is replaced with DME 0.5% serum to make them quiescent, and mitogenesis assays are performed 24 hours later.\nQuiescent cells are exposed to a mitogenic stimulus, such as 10% serum, PDGF (Sigma Co. St. Louis, Mo.), bFGF (Upstate Biotechnologies, Lake Placid, N.Y.), or other appropriate mitogen according to the cell line, and 3 hours later 1 μCi/ml of [3H]thymidine (Dupont, Billerica, Mass. ) is added to the wells, and the cells maintained at 37° C./5% CO2 for additional 21 hours. Then the cells are washed 3 times with DME medium and the acid-precipitable radioactivity is extracted with cold 10% TCA (Sigma, Co). After neutralization with 0.3 N NaOH (Sigma Co.), aliquots are counted in a Packard Tri-Carb Scintillation counter (Packard Instrument, Downer's Grove, Ill.). […]", "data": [{"smiles": "Clc1ccccc1C(c1ccccc1)(c1ccccc1)n1ccnc1", "note": "[clotrimazole]", "values": [{"measurement": "IC50", "result": "~1500", "unit": "nM"}]}]}
